Test results taken from article PMC11733159.
No constants are given. Whether binding was seen depends on the method and setting. In cells and extracts the contact can be indirect. Some binding calls cover weakened binding; strength is not graded here. For part of these data: Tags and fused reporters may be left off the sequences shown. One block for each binder: values may come before it.

Columns and labels:
[1] = biological target: T1, RNF128 (endogenous, THP-1) (human (endogenous in THP-1)) (UniProt Q8TEB7); test: co-IP; total THP-1 cell lysates (endogenous proteins) immunoprecipitated with anti-RNF128 or anti-S100A8 antibodies; western blot
T1 sequence: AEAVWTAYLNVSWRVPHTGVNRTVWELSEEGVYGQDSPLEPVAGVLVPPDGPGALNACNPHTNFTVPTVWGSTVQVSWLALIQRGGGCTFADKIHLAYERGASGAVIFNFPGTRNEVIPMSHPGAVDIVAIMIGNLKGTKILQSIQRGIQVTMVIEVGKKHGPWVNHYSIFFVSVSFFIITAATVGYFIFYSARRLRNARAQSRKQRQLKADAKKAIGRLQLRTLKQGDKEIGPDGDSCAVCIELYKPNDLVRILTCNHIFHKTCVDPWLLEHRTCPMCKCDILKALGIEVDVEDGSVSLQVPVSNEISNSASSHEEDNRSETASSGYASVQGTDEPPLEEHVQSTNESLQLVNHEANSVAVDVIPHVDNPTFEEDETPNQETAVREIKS

[2] = biological target: T2, RNF128-Flag (in 293T cells) (human) (UniProt Q8TEB7); test: co-IP; 293T (printed 239T) cells co-transfected with Flag- and GFP-tagged constructs for 48 h; total lysates immunoprecipitated with anti-Flag or anti-GFP antibodies; western blot
T2 sequence: T1 sequence

[3] = biological target: T3, RNF128-Flag_(277-428) (human) (UniProt Q8TEB7); test: as above
T3 sequence: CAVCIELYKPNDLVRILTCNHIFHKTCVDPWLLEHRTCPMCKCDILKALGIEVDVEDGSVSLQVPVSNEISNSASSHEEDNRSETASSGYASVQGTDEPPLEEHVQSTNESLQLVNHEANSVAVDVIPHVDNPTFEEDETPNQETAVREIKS

[4] = biological target: T4, S100A8 (endogenous, THP-1) (human (endogenous in THP-1)) (UniProt P05109); test: co-IP; total THP-1 cell lysates (endogenous proteins) immunoprecipitated with anti-RNF128 or anti-S100A8 antibodies; western blot
T4 sequence: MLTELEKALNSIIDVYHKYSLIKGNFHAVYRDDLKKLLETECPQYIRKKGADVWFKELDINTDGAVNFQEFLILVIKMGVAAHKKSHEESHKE

[5] = biological target: T5, S100A8-GFP (human) (UniProt P05109); test: co-IP; 293T (printed 239T) cells co-transfected with Flag- and GFP-tagged constructs for 48 h; total lysates immunoprecipitated with anti-Flag or anti-GFP antibodies; western blot
T5 sequence: T4 sequence

[6] = biological target: T6, S100A8-GFP_(1-46) (human) (UniProt P05109); test: as above
T6 sequence: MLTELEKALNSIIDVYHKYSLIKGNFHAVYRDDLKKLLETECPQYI

binding [1]: binds
B1: S100A8 (endogenous, THP-1) (protein, UniProt P05109 1-93)
chain: T4 sequence

binding [2]: binds
binding [3]: binds
B2: S100A8-GFP (protein, UniProt P05109 1-93)
chain: T4 sequence

binding [4]: binds
B3: RNF128 (endogenous, THP-1) (enzyme, UniProt Q8TEB7 39-428)
chain: T1 sequence

binding [5]: binds
binding [6]: binds
B4: RNF128-Flag (in 293T cells) (enzyme, UniProt Q8TEB7 39-428)
chain: T1 sequence
